Experimental data published in PubChem BioAssay AID540276 (National Center for Advancing Translational Sciences (NCATS), 2011).
In all, about 300,000 compounds went through this assay and about 5,400 (1.8%) were called active. Inconclusive results, whose numbers are uncertain, are shown with a selection of clear calls. Calls follow the shape of the full dose curve; tested in HEK293 cells. A potency beside an inconclusive call is a rough fit, not a confirmed value.

Assay: qHTS for inhibitors of binding or entry into cells for Marburg Virus
Conditions: Marburg virus pseudotyped entry inhibition, cell reporter; activity change, negative = inhibition: at 37.8 µM (top of the series) unless noted
% is scaled to controls: 0 for no effect and ±100 for the full control effect; potency is read from the fitted curve at half-maximal effect.

| SMILES | activity change, negative = inhibition | Potency |
| --- | --- | --- |
| COc1cccc(NC(=O)C[C@H]2SC(=Nc3ccccc3)NC2=O)c1 | inactive: -24.7% |  |
| Cc1[nH]c(=O)c(C#N)c2c1CCCC2 |  | inconclusive: 0.82 µM [inhibitor, partial curve, poor fit] |
| O=C(Nc1ccc(F)cc1F)c1cncc(Br)c1 |  | inconclusive: 35.5 µM [activator, partial curve, poor fit] |
| CCN(CC)S(=O)(=O)c1ccc2c(c1)nc(CCC(=O)OCc1c(C)noc1C)n2C |  | inconclusive: 15.8 µM [activator, single point] |
| CCC(C)(C)NC(=O)Cc1ccc(F)cc1 | inactive: 10.7% [at 46.1 µM] |  |
| CNc1c2cccc(C)c2nc2c(C(=O)NCCN(C)C)cccc12 |  | inconclusive: 1.58 µM [inhibitor, full curve, poor fit] |
| Clc1ccc(CNCc2cccs2)cc1Cl | inactive: 23.4% |  |
| Cn1nnnc1SCCCNCc1ccccc1OCc1ccccc1Cl |  | inconclusive: 6.31 µM [inhibitor, partial curve, poor fit] |
| COc1ccc(-c2noc(CSc3nnc(C)n3-c3ccc(OC)cc3)n2)cc1 | inactive: -1.03% [at 46.1 µM] |  |
| CC(C)(C)n1nc2c(c1NC(=O)c1cc3ccccc3o1)CS(=O)(=O)C2 |  | inconclusive: 5.62 µM [inhibitor, single point] |
| CCCCc1nc(NCCNC(=O)c2ccccc2)c(C#N)c2c1CSC(C)(C)C2 |  | inconclusive: 20 µM [inhibitor, partial curve, poor fit] |
| CCN(CC)CCNC(=S)Nc1ccc2nc3n(c(=O)c2c1)CCCCC3 |  | inconclusive: 35.5 µM [inhibitor, single point] |
| C=CCn1nc([N+](=O)[O-])nc1Sc1cccc2cccnc12 |  | inconclusive: 35.5 µM [inhibitor, partial curve, poor fit] |
| COc1ccc(CN2CCc3nc(SCC(=O)Nc4cc(C)cc(C)c4)[nH]c(=O)c3C2)cc1 | inactive: 16.9% [at 46.1 µM] |  |
| COCCNC(=S)Nc1ccc(S(=O)(=O)Nc2ncccn2)cc1 | inactive: 15.2% [at 46.1 µM] |  |
| CCCOC(=O)CSc1ncnc2sc3c(c12)CCC(C)C3 (centres undefined) | inactive: -0.712% [at 46.1 µM] |  |
| COC(=O)c1c(NC(=O)C2C3CCC(O3)C2C(=O)O)sc2c1CCCCCC2 (centres undefined) |  | inconclusive: 35.5 µM [activator, partial curve, poor fit] |
| CCn1cnc2cc(NCc3nc4ccccc4n3C)ccc21 |  | inconclusive: 29.1 µM [inhibitor, single point] |
| COC(=O)NNC(=S)NCc1ccccc1 | inactive: -8.86% |  |
| CC(=O)OC[C@H]1O[C@@H](ON=C(C)CCC(=O)OC[C@H]2O[C@H](C#Cc3ccccc3)C=C[C@H]2Oc2ccc(C)cc2)[C@H](OC(C)=O)[C@@H](OC(C)=O)[C@H]1OC(C)=O | inactive: 9.24% [at 14.2 µM] |  |
| O=C(Nc1ccccc1C(=O)N/N=C/c1ccco1)c1ccccc1Cl | inactive: -12.2% |  |
| O=C(CN1CCN(C(=O)c2ccco2)CC1)NCc1ccc(Cl)cc1 | inactive: 2.59% |  |
| Cc1cccc(NC(=O)c2sc(-n3nc(C)c(Cc4ccc5c(c4)OCO5)c3C)nc2C)c1C | inactive: -0.43% [at 46.1 µM] |  |

| SMILES | activity change, negative = inhibition | Potency |
| --- | --- | --- |
| Cc1ccc(N(C)S(=O)(=O)c2cccc(C(=O)Nc3nc4ccccc4[nH]3)c2)cc1 |  | active: 11.6 µM |
| Cc1ccc(Cn2c(SCc3ccc(C(=O)N4CCCCCC4)cc3)nc3ccncc32)cc1 |  | inconclusive: 35.5 µM [inhibitor, single point] |
| O=c1[nH]c(-c2ccco2)nc2sc3c(c12)CCCC3 |  | inconclusive: 0.398 µM [activator, partial curve, poor fit] |
| CCCCCC(=O)N/N=C/c1ccccc1[N+](=O)[O-] | inactive: -9.26% [at 46.1 µM] |  |
| COc1ccccc1N(C(C)=O)c1nc(C)cc(C)c1C#N | inactive: -0.603% |  |
| COc1ccc(-n2nnnc2SCC(=O)N2CCN(C(=O)c3ccco3)CC2)cc1OC |  | inconclusive: 1.12 µM [activator, partial curve, poor fit] |
| O=c1[nH]c(=S)n(CCC2=CCCCC2)c(O)c1C=NC1CCN(Cc2ccccc2)CC1 |  | inconclusive: 6.51 µM [inhibitor, single point] |
| Cc1ccc(NC(=O)C(=O)NNC(=O)c2ccccc2C)cc1Cl |  | inconclusive: 0.0891 µM [inhibitor, full curve, poor fit] |
| Cc1ccc(C)c(COc2coc(CN3CCN(C(=O)c4ccco4)CC3)cc2=O)c1 | inactive: -1.01% |  |
| COc1ccc(-c2c[n+]3c(n2-c2ccc(C)cc2)CCCCC3)cc1 |  | active: 7.08 µM |
| COc1ccccc1N(C(=O)c1snc(C(N)=O)c1N)C(C(=O)NC1CCCC1)c1ccc2ncccc2c1 (centres undefined) |  | inconclusive: 14.1 µM [inhibitor, partial curve, poor fit] |
| O=C(c1ccc2ccccc2c1)N1CCN(c2ccccn2)CC1 |  | inconclusive: 6.31 µM [inhibitor, single point] |
| CC(C)C[C@H](N)CSSC[C@@H](N)CC(C)C |  | active: 1.26 µM |
| O=c1[nH]c(=O)n(C2CCCCC2)c(O)c1C=Nc1ccc(N2CCOCC2)cc1 |  | inconclusive: 0.112 µM [activator, full curve, poor fit] |
| COc1ccc(C(=O)Nc2cc(Cl)ccc2C(=O)O)cc1 | inactive: 8.64% [at 46.1 µM] |  |
| O=c1cnnc(SCc2ccc([N+](=O)[O-])cc2)[nH]1 | inactive: -2.24% [at 46.1 µM] |  |
| CCCCCSc1nc2sc3c(c2c(=O)n1-c1ccccc1)CCN(C(C)=O)C3 |  | inconclusive: 12.6 µM [inhibitor, partial curve, poor fit] |
| CCN(CC)C(=O)CSc1nc(-c2ccccc2)cc(=O)[nH]1 |  | inconclusive: 3.16 µM [inhibitor, single point] |
| C#CCSc1nnc(-c2ccc(O)cc2)o1 |  | inconclusive: 15.8 µM [activator, single point] |
| CC(Cc1ccsc1)NCc1cn[nH]c1-c1ccc(F)cc1F (centres undefined) |  | inconclusive: 0.366 µM [inhibitor, full curve, poor fit] |
| COC(=O)c1c(-c2cccs2)csc1NC(=O)COc1c(C)ccc(C)c1C |  | inconclusive: 6.31 µM [inhibitor, single point] |
| CCOC(=O)C1CCN(C(=O)COc2ccc(N(C)S(=O)(=O)c3cccs3)cc2)CC1 |  | inactive |
| CC(C1CC1)N(Cc1ccccc1)C(=O)NC(=O)c1ccc(F)cc1 (centres undefined) | inactive: 4.71% |  |

| SMILES | activity change, negative = inhibition | Potency |
| --- | --- | --- |
| O=[N+]([O-])c1ccc(-c2ccc(/C=N/c3c(-c4ccco4)nc4ccccn34)o2)cc1 |  | inconclusive: 29.1 µM [inhibitor, single point] |
| O=C(Nc1ccc(Oc2cccc(C(F)(F)F)c2)nc1)c1ccccc1 |  | inconclusive: 3.16 µM [inhibitor, partial curve] |
| COc1ccc(CCC(=O)OCC(=O)NCc2ccccc2)cc1 |  | inconclusive: 6.31 µM [inhibitor, full curve, poor fit] |
| CCOC(=O)C(C)(C)N(Cc1ccc(C)cc1)S(=O)(=O)c1ccc(Cl)c([N+](=O)[O-])c1 |  | inconclusive: 10 µM [inhibitor, partial curve, poor fit] |
| Oc1ccc(N=Nc2c(O)ccc3ccccc23)cc1 |  | inconclusive: 9.2 µM [inhibitor, partial curve, poor fit] |
| CCC(C)N(C)Cc1cccc(C2(O)CCN(S(=O)(=O)c3ccc(F)c(C)c3)CC2)c1 (centres undefined) |  | inconclusive: 14.6 µM [inhibitor, single point] |
| O=C(Cc1ccc(Br)cc1)N1CCN(c2ccccc2)CC1 | inactive: -2.79% [at 46.1 µM] |  |
| CC(=O)NC(C)C(=O)OCc1ccc(Cl)cc1Cl (centres undefined) | inactive: 5.46% |  |
| NC(=NC(=O)c1ccc(Cl)cc1)N1N=CCC1c1ccccc1 (centres undefined) |  | inconclusive: 15.8 µM [inhibitor, single point] |
| CS(=O)(=O)Nc1ccc(OCc2ccccc2)cc1 | inactive: 17.5% |  |
| O=C(CSc1ccccn1)Nc1nc2ccccc2s1 |  | inconclusive: 0.501 µM [activator, full curve, poor fit] |
| O=C(NC1CC2CCCC(C1)N2C(=O)Nc1ccccc1)c1ccccc1 (centres undefined) | inactive: -9.66% [at 46.1 µM] |  |
| Cc1ccc(CN(C)C(=O)c2cccc(S(=O)(=O)N3CCN(c4ccccc4)CC3)c2)cc1 |  | inconclusive: 35.5 µM [inhibitor, single point] |
| O=C(/C=C/c1ccccc1F)c1cccc([N+](=O)[O-])c1 |  | inconclusive: 11.6 µM [inhibitor, partial curve, poor fit] |
| COc1cc(NC(=O)COc2ccc(Cl)cc2)ccc1-c1cc2ccccc2oc1=O |  | inconclusive: 17.8 µM [inhibitor, single point] |
| CN(C)c1ccc(Nc2c3c4c(cccc4n(C)c2=O)C(=O)c2ccccc2-3)cc1 |  | inconclusive: 7.08 µM [inhibitor, full curve, poor fit] |
| CC1CCN(S(=O)(=O)c2ccc(C(=O)NCc3ccc4c(c3)OCO4)cc2)CC1 |  | inconclusive: 29.1 µM [inhibitor, single point] |
| O=C(OC1C2CCC1C1CN(CCc3ccccc3)CC12)c1ccccc1 (centres undefined) |  | inconclusive: 18.4 µM [inhibitor, partial curve, poor fit] |
| Cc1c(NC(=S)/C=C2\N(C)c3ccccc3C2(C)C)c(=O)n(-c2ccccc2)n1C | inactive: 5.36% |  |
| CCOC(=O)Nc1ccc2c(c1)N(C(=O)CCN(C)C)c1ccccc1S2 |  | inconclusive: 29.1 µM [inhibitor, single point] |
| O=C(NCc1ccco1)c1nc2c(nnn2Cc2ccccc2Cl)c(=O)[nH]1 |  | inconclusive: 29.1 µM [inhibitor, single point] |
| O=C(CN1C(=O)NC(Cc2ccccc2)(Cc2ccccc2)C1=O)NCC1CCCCC1 |  | inconclusive: 1.12 µM [inhibitor, full curve] |
| Cc1cc(Br)ccc1NC(=O)C1CCN(S(=O)(=O)c2cccc3nsnc23)CC1 |  | inconclusive: 31.6 µM [activator, single point] |

Taken from the listing (four entries):

| SMILES | activity change, negative = inhibition | Potency |
| --- | --- | --- |
| O=C(/C=C/c1ccccc1F)c1cccc([N+](=O)[O-])c1 |  | inconclusive: 11.6 µM [inhibitor, partial curve, poor fit] |
| COc1cc(NC(=O)COc2ccc(Cl)cc2)ccc1-c1cc2ccccc2oc1=O |  | inconclusive: 17.8 µM [inhibitor, single point] |
| CN(C)c1ccc(Nc2c3c4c(cccc4n(C)c2=O)C(=O)c2ccccc2-3)cc1 |  | inconclusive: 7.08 µM [inhibitor, full curve, poor fit] |
| CC1CCN(S(=O)(=O)c2ccc(C(=O)NCc3ccc4c(c3)OCO4)cc2)CC1 |  | inconclusive: 29.1 µM [inhibitor, single point] |
